US12099068B2, “Biomarkers for graft-versus-host disease” (Incyte Corporation, priority 2018, dated 2024)

B1: BCAN (protein, UniProt Q96GW7 23-911, looked up)
Brevican core protein: DVLEGDSSEDRAFRVRIAGDAPLQGVLGGALTIPCHVHYLRPPPSRRAVLGSPRVKWTFLSRGREAEVLVARGVRVKVNEAYRFRVALPAYPASLTDVSLALSELRPNDSGIYRCEVQHGIDDSSDAVEVKVKGVVFLYREGSARYAFSFSGAQEACARIGAHIATPEQLYAAYLGGYEQCDAGWLSDQTVRYPIQTPREACYGDMDGFPGVRNYGVVDPDDLYDVYCYAEDLNGELFLGDPPEKLTLEEARAYCQERGAEIATTGQLYAAWDGGLDHCSPGWLADGSVRYPIVTPSQRCGGGLPGVKTLFLFPNQTGFPNKHSRFNVYCFRDSAQPSAIPEASNPASNPASDGLEAIVTVTETLEELQLPQEATESESRGAIYSIPIMEDGGGGSSTPEDPAEAPRTLLEFETQSMVPPTGFSEEEGKALEEEEKYEDEEEKEEEEEEEEVEDEALWAWPSELSSPGPEASLPTEPAAQEESLSQAPARAVLQPGASPLPDGESEASRPPRVHGPPTETLPTPRERNLASPSPSTLVEAREVGEATGGPELSGVPRGESEETGSSEGAPSLLPATRAPEGTRELEAPSEDNSGRTAPAGTSVQAQPVLPTDSASRGGVAVVPASGDCVPSPCHNGGTCLEEEEGVRCLCLPGYGGDLCDVGLRFCNPGWDAFQGACYKHFSTRRSWEEAETQCRMYGAHLASISTPEEQDFINNRYREYQWIGLNDRTIEGDFLWSDGVPLLYENWNPGQPDSYFLSGENCVVMVWHDQGQWSDVPCNYHLSYTCKMGLVSCGPPPELPLAQVFGRPRLRYEVDTVLRYRCREGLAQRNLPLIRCQENGRWEAPQISCVPRRPARALHPEEDPEGRQGRLLGRWKALLIPPSSPMPGP
B2: ALDH3A1 (protein, UniProt P30838 2-453, looked up)
Aldehyde dehydrogenase, …: SKISEAVKRARAAFSSGRTRPLQFRIQQLEALQRLIQEQEQELVGALAADLHKNEWNAYYEEVVYVLEEIEYMIQKLPEWAADEPVEKTPQTQQDELYIHSEPLGVVLVIGTWNYPFNLTIQPMVGAIAAGNSVVLKPSELSENMASLLATIIPQYLDKDLYPVINGGVPETTELLKERFDHILYTGSTGVGKIIMTAAAKHLTPVTLELGGKSPCYVDKNCDLDVACRRIAWGKFMNSGQTCVAPDYILCDPSIQNQIVEKLKKSLKEFYGEDAKKSRDYGRIISARHFQRVMGLIEGQKVAYGGTGDAATRYIAPTILTDVDPQSPVMQEEIFGPVLPIVCVRSLEEAIQFINQREKPLALYMFSSNDKVIKKMIAETSSGGVAANDVIVHITLHSLPFGGVGNSGMGSYHGKKSFETFSHRRSCLVRPLMNDEGLKVRYPPSPAKMTQH
B3: CDSN (protein, UniProt Q15517 33-529, looked up)
Corneodesmosin: KSIGTFSDPCKDPTRITSPNDPCLTGKGDSSGFSSYSGSSSSGSSISSARSSGGGSSGSSSGSSIAQGGSAGSFKPGTGYSQVSYSSGSGSSLQGASGSSQLGSSSSHSGNSGSHSGSSSSHSSSSSSFQFSSSSFQVGNGSALPTNDNSYRGILNPSQPGQSSSSSQTFGVSSSGQSVSSNQRPCSSDIPDSPCSGGPIVSHSGPYIPSSHSVSGGQRPVVVVVDQHGSGAPGVVQGPPCSNGGLPGKPCPPITSVDKSYGGYEVVGGSSDSYLVPGMTYSKGKIYPVGYFTKENPVKGSPGVPSFAAGPPISEGKYFSSNPIIPSQSAASSAIAFQPVGTGGVQLCGGGSTGSKGPCSPSSSRVPSSSSISSSSGLPYHPCGSASQSPCSPPGTGSFSSSSSSQSSGKIILQPCGSKSSSSGHPCMSVSSLTLTGGPDGSPHPDPSAGAKPCGSSSAGKIPCRSIRDILAQVKPLGPQLADPEVFLPQGELLNSP
B4: CXADR (protein, UniProt P78310 20-365, looked up)
Coxsackievirus and adenovirus …: LSITTPEEMIEKAKGETAYLPCKFTLSPEDQGPLDIEWLISPADNQKVDQVIILYSGDKIYDDYYPDLKGRVHFTSNDLKSGDASINVTNLQLSDIGTYQCKVKKAPGVANKKIHLVVLVKPSGARCYVDGSEEIGSDFKIKCEPKEGSLPLQYEWQKLSDSQKMPTSWLAEMTSSVISVKNASSEYSGTYSCTVRNRVGSDQCLLRLNVVPPSNKAGLIAGAIIGTLLALALIGLIIFCCRKKRREEKYEKEVHHDIREDVPPPKSRTSTARSYIGSNHSSLGSMSPSNMEGYSKTQYNQVPSEDFERTPQSPTLPPAKVAAPNLSRMGAIPVMIPAQSKDGSIV
B5: DRAXIN (protein, UniProt Q8NBI3 26-349, looked up)
Draxin: GALAPGTPARNLPENHIDLPGPALWTPQASHHRRRGPGKKEWGPGLPSQAQDGAVVTATRQASRLPEAEGLLPEQSPAGLLQDKDLLLGLALPYPEKENRPPGWERTRKRSREHKRRRDRLRLHQGRALVRGPSSLMKKAELSEAQVLDAAMEESSTSLAPTMFFLTTFEAAPATEESLILPVTSLRPQQAQPRSDGEVMPTLDMALFDWTDYEDLKPDGWPSAKKKEKHRGKLSSDGNETSPAEGEPCDHHQDCLPGTCCDLREHLCTPHNRGLNNKCFDDCMCVEGLRCYAKFHRNRRVTRRKGRCVEPETANGDQGSFINV
B6: TIMP4 (protein, UniProt Q99727 30-224, looked up)
Metalloproteinase inhibitor 4: CSCAPAHPQQHICHSALVIRAKISSEKVVPASADPADTEKMLRYEIKQIKMFKGFEKVKDVQYIYTPFDSSLCGVKLEANSQKQYLLTGQVLSDGKVFIHLCNYIEPWEDLSLVQRESLNHHYHLNCGCQITTCYTVPCTISAPNECLWTDWLLERKLYGYQAQHYVCMKHVDGTCSWYRGHLPLRKEFVDIVQP
B7: WNT9A (protein, UniProt O14904 30-365, looked up)
Protein Wnt-9a: YFGLTGSEPLTILPLTLEPEAAAQAHYKACDRLKLERKQRRMCRRDPGVAETLVEAVSMSALECQFQFRFERWNCTLEGRYRASLLKRGFKETAFLYAISSAGLTHALAKACSAGRMERCTCDEAPDLENREAWQWGGCGDNLKYSSKFVKEFLGRRSSKDLRARVDFHNNLVGVKVIKAGVETTCKCHGVSGSCTVRTCWRQLAPFHEVGKHLKHKYETALKVGSTTNEAAGEAGAISPPRGRASGAGGSDPLPRTPELVHLDDSPSFCLAGRFSPGTAGRRCHREKNCESICCGRGHNTQSRVVTRPCQCQVRWCCYVECRQCTQREEVYTCKG
B8: ENTPD2 (protein, UniProt Q9Y5L3 1-495, looked up)
Ectonucleoside triphosphate …: MAGKVRSLLPPLLLAAAGLAGLLLLCVPTRDVREPPALKYGIVLDAGSSHTSMFIYKWPADKENDTGIVGQHSSCDVPGGGISSYADNPSGASQSLVGCLEQALQDVPKERHAGTPLYLGATAGMRLLNLTNPEASTSVLMAVTHTLTQYPFDFRGARILSGQEEGVFGWVTANYLLENFIKYGWVGRWFRPRKGTLGAMDLGGASTQITFETTSPAEDRASEVQLHLYGQHYRVYTHSFLCYGRDQVLQRLLASALQTHGFHPCWPRGFSTQVLLGDVYQSPCTMAQRPQNFNSSARVSLSGSSDPHLCRDLVSGLFSFSSCPFSRCSFNGVFQPPVAGNFVAFSAFFYTVDFLRTSMGLPVATLQQLEAAAVNVCNQTWAQLQARVPGQRARLADYCAGAMFVQQLLSRGYGFDERAFGGVIFQKKAADTAVGWALGYMLNLTNLIPADPPGLRKGTDFSSWVVLLLLFASALLAALVLLLRQVHSAKLPSTI
B9: MFAP5 (protein, UniProt Q13361 22-173, looked up)
Microfibrillar-associated …: IPLGVNSQRGDDVTQATPETFTEDPNLVNDPATDETVLAVLADIAPSTDDLASLSEKNTTAECWDEKFTCTRLYSVHRPVKQCIHQLCFTSLRRMYIVNKEICSRLVCKEHEAMKDELCRQMAGLPPRRLRRSNYFRLPPCENVDLQRPNGL

system: plasma proteins; assay: OLINK proximity extension assay of baseline plasma, CR compared to PD/Death, updated classification, Example 5 (Table 11); format: in vivo, human; details: itacitinib 200 or 300 mg QD plus corticosteroids, response at day 28

Compared with B1, B3 is lower in “Fold Change, Up-Regulated in CR Compared to PD/Death” value (“Fold Change, Up-Regulated” below): 1.6911 for the first, 1.6718 for the second.

First: B5
Second: B6
The “Fold Change, Up-Regulated” value of the first is higher: 1.6547 for the first, 1.5269 for the second.

Compared with B7, B9 is lower in “Fold Change, Up-Regulated” value: 1.5125 for the first, 1.4911 for the second.

Compared with B2, B4 is higher in “Fold Change, Down-Regulated in CR Compared to PD/Death” value: −2.477 for the first, −2.4672 for the second.

B8 was tested, and the “Fold Change, Down-Regulated in CR Compared to PD/Death” value was −2.1935.

system: plasma proteins; assay: Proteins of Table 11 stably expressed in complete responders between days 1 and 28, Example 5 (Table 12); format: in vivo, human; details: day 1 vs day 28

First: B1
Second: B3
The “Fold Change (D1 vs D28), proteins Up-Regulated in CR Compared to PD/Death” value of the first is higher: 1.0439 for the first, −1.05 for the second.

Going from B5 to B6, the “Fold Change (D1 vs D28), proteins Up-Regulated in CR Compared to PD/Death” value rises from −1.0356 to 1.0265.

Compared with B7, B9 is lower in “Fold Change (D1 vs D28), proteins Up-Regulated in CR Compared to PD/Death” value: 1.0058 for the first, −1.1215 for the second.

Going from B2 to B4, the “Fold Change (D1 vs D28), proteins Down-Regulated in CR Compared to PD/Death” value rises from −1.292 to −1.0305.

In the case of B8, the “Fold Change (D1 vs D28), proteins Down-Regulated in CR Compared to PD/Death” value is reported as 1.0197.
